Data as given in the supplement of paper PMC4635364.
Where a name gives a salt, the structure may show the parent alone. This is one part of the list. This data set is noisy: repeats of one test often differ as much as different tests do.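 Human fetal ventral-midbrain neural progenitor line ReNCell VM, differentiated without mitogens. Images stained for doublecortin (early neurons) or tyrosine hydroxylase (dopaminergic neurons) were scored by blinded raters against untreated wells (0 = no change). Repeats and both raters were averaged, and compounds averaging 2 or higher were picked as hits for retesting.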

system: ReNCell VM; experiment: dopaminergic neuron differentiation score (TH+ cell fraction vs untreated, manual image score) (score (0 to 3)); higher = more TH+ dopaminergic neuron differentiation; conditions: library: Phytochemical; 2 uM; 4 weeks; BDNF 10 ng/ml + GDNF 10 ng/ml

SMILES | dopaminergic neuron differentiation score
CC1NCCc2c1[nH]c1ccccc21 (racemic) [Eleagnine hydrochloride (R,S)] | inactive: 0
CN1CCC2=C[C@H](O)[C@H]3OC(=O)c4cc5c(cc4[C@H]3[C@@H]21)OCO5 [Hippeastrine hydrobromide] | inactive: 0
COc1ccc(C(=O)OC2C[C@H]3CC[C@@H](C2)N3C)cc1OC (stereo partly drawn) [Convolamine hydrochloride] | inactive: 0
CCN1C[C@]2(C)CC[C@H](OC)[C@@]34C1[C@]1(OCO[C@@]15C[C@H](OC)[C@H]1C[C@]3(O)[C@@H]5[C@H]1OC)[C@@H](OC(C)=O)[C@H]24 [Deltaline] | inactive: 0
COc1c2c(cc3c1OCO3)CC[N+](C)=C2 [Cotarnine chloride] | inactive: 0
COc1cc2c(cc1O)C[C@H]1c3c(cc(O)c(OC)c3-2)CCN1C [Boldine] | inactive: 0
CN[C@@H](C)[C@H](O)c1ccccc1 [Ephedrine HCl] | inactive: 0
CC(C)[C@H]1C(=O)O[C@@H]2CCN3CC=C(COC(=O)[C@](C)(O)[C@]1(C)O)[C@H]23 [Trichodesmine] | inactive: 0
C=C[C@H]1CN2CC[C@H]1C[C@@H]2[C@@H](O)c1ccnc2ccccc12 [Cinchonine] | inactive: 0

same assay, conditions: library: Prestwick; 2 uM; 4 weeks; BDNF 10 ng/ml + GDNF 10 ng/ml

SMILES | dopaminergic neuron differentiation score
CC1OC(OC2/C=C/C=C/C=C/C=C/CC/C=C/C=C/[C@H](C)[C@@H](O)[C@@H](C)[C@H](C)OC(=O)CC(O)CC(O)CC(O)CCC(O)C(O)C[C@]3(O)CC(O)C(C(=O)O)C(C2)O3)C(O)C(N)C1O (stereo partly drawn) [Nystatine] | inactive: 0
CCCCCC[C@H]1C(=O)O[C@H](C)[C@H](NC(=O)c2cccc(NC=O)c2O)C(=O)O[C@@H](C)[C@@H]1OC(=O)CC(C)C [Antimycin A] | inactive: 0
COc1cc2c(cc1OC)C(C)NCC2 (stereo not drawn) | inactive: 0

same assay, conditions: library: Spectrum; 2 uM; 4 weeks; BDNF 10 ng/ml + GDNF 10 ng/ml

SMILES | dopaminergic neuron differentiation score
CN1[C@H]2C[C@H](OC(=O)[C@H](CO)c3ccccc3)C[C@@H]1[C@@H](O)C2 | inactive: 0
CN(C)C(=O)Oc1cc(OC(=O)N(C)C)cc(C(O)CNC(C)(C)C)c1 (stereo not drawn) | inactive: 0
CCC(C)(C)O | inactive: 0
CC[C@@H](C)C(=O)O[C@H]1[C@H](O)[C@H]2[C@@H](CN3C[C@@H](C)CC[C@H]3[C@@]2(C)O)[C@@H]2C[C@]34O[C@]5(O)[C@@H](OC(=O)[C@@](C)(O)CC)CC[C@@]3(C)[C@@H]5[C@@H](OC(C)=O)[C@@H](OC(C)=O)[C@H]4[C@@]21O | inactive: 0
C[C@]12C=CC(=O)C=C1CC[C@@H]1[C@@H]2CC[C@]2(C)C(=O)CC[C@@H]12 | inactive: 0
O=c1[nH]c(=O)n(Cl)c(=O)n1Cl | inactive: 0
NP(N)(=O)NC(=O)c1ccc(F)cc1 | inactive: 0
CC(=O)OCC1=C(C(=O)O)N2C(=O)[C@@H](NC(=O)CCC[C@@H](N)C(=O)O)[C@H]2SC1 | inactive: 0
C=C/C=C\CC1=C(C)[C@@H](OC(=O)[C@@H]2[C@@H](/C=C(\C)C(=O)OC)C2(C)C)CC1=O.C=C/C=C\CC1=C(C)[C@@H](OC(=O)[C@@H]2[C@@H](C=C(C)C)C2(C)C)CC1=O | inactive: 0
O=C1c2ccccc2C(=O)c2ccccc21 | inactive: 0
O=c1ccc2cc(O[C@@H]3O[C@H](CO)[C@@H](O)[C@H](O)[C@H]3O)c(O)cc2o1 | inactive: 0
CC(O)CN1CCN(CC(=O)[O-])CCN(CC(=O)[O-])CCN(CC(=O)[O-])CC1.[Gd+3] (stereo not drawn) | inactive: 0
COc1ccccc1N1CCNCC1 | inactive: 0
c1ccc2c(c1)sc1ccccc12 | inactive: 0
Cc1nccc2c1[nH]c1cc(O)ccc12 | inactive: 0
O=P1(NCCCl)OCCCN1CCCl (stereo not drawn) | inactive: 0

Some of the entries above in another layout:
SMILES	dopaminergic neuron differentiation score
NP(N)(=O)NC(=O)c1ccc(F)cc1	inactive: 0
CC(=O)OCC1=C(C(=O)O)N2C(=O)[C@@H](NC(=O)CCC[C@@H](N)C(=O)O)[C@H]2SC1	inactive: 0
C=C/C=C\CC1=C(C)[C@@H](OC(=O)[C@@H]2[C@@H](/C=C(\C)C(=O)OC)C2(C)C)CC1=O.C=C/C=C\CC1=C(C)[C@@H](OC(=O)[C@@H]2[C@@H](C=C(C)C)C2(C)C)CC1=O	inactive: 0
O=C1c2ccccc2C(=O)c2ccccc21	inactive: 0
O=c1ccc2cc(O[C@@H]3O[C@H](CO)[C@@H](O)[C@H](O)[C@H]3O)c(O)cc2o1	inactive: 0
CC(O)CN1CCN(CC(=O)[O-])CCN(CC(=O)[O-])CCN(CC(=O)[O-])CC1.[Gd+3] (stereo not drawn)	inactive: 0
COc1ccccc1N1CCNCC1	inactive: 0
c1ccc2c(c1)sc1ccccc12	inactive: 0

same assay, conditions: library: Tocriscreen; 2 uM; 4 weeks; BDNF 10 ng/ml + GDNF 10 ng/ml

SMILES | dopaminergic neuron differentiation score
Cc1cc(C)cc(C(=O)OC2C[C@H]3CC[C@@H](C2)N3C)c1 (stereo partly drawn) [Tropanyl-3,5-dimethylbenzoate] | inactive: 0
CC(=O)N(C)c1cccc(-c2ccnc3c(C(=O)c4cccs4)cnn23)c1 [Indiplon] | inactive: 0
Cc1[nH]c2ccc(Cl)cc2c1C1=CCNCC1 | inactive: 0
O=c1cccc2n1C[C@@H]1CNC[C@H]2C1 [(-)-Cytisine] | inactive: 0
CN1[C@@H]2C[C@@H](OC(=O)[C@H](CO)c3ccccc3)C[C@H]1[C@@H]1O[C@@H]12 [Scopolamine hydrobromide] | inactive: 0
